Measured values as given in PMC4535766, “Antiprotozoal Activity Profiling of Approved Drugs: A Starting Point toward Drug Repositioning” (PLoS ONE, 2015).

Assays:
[1] = tested on: T. b. rhodesiense strain STIB 900, trypomastigotes; assay: In vitro activity against T. b. rhodesiense, serial drug dilution assay; details: Trypanosoma brucei, read-out: IC50 T. b. rhod.
Description: (§1) Drug stock solutions (10mg/ml) were in DMSO (100%). […] Selectivity index (SI) was calculated as IC50 L6 cells/IC50 parasite.

[2] = tested on: T. cruzi, strain Tulahuen C4, intracellular amastigotes; assay: microbe, parasite or virus in culture; details: Trypanosoma cruzi, read-out: IC50 T. cruzi
Description: as §1

[3] = tested on: axenic amastigotes of L. donovani, strain MHOM-ET-67/L82; assay: In vitro activity against L. donovani axenic amastigotes, serial drug dilution assay; format: cell-based; details: Leishmania donovani, means of two independent assays, read-out: IC50 L. don. axen.
Description: as §1

[4] = tested on: intracellular amastigotes of L. donovani strain MHOM-ET-67/L82; assay: Activity against Leishmania donovani intracellular amastigotes in mouse peritoneal macrophages; details: Peritoneal macrophage, 96 h, read-out: IC50 L. don. intracell
Description: After 24 h 1.2 x 10^5 amastigote L. donovani in 100 μl were added. The amastigotes were taken from an axenic culture grown at pH 5.4. Four hours later, the medium containing free amastigote forms was removed and replaced by fresh medium. The next day the medium was replaced by medium with or without a serial drug dilution of seven 3-fold dilution steps covering a range from 30 to 0.04 μg/ml. Parasite growth in the presence of the drug was compared to control wells. After 96 h of incubation, the medium was removed and the slides fixed with methanol for 10 min followed by staining with a 10% Giemsa solution. Infected and non-infected macrophages were counted for the control cultures and those exposed to the serial drug dilutions. The infection rates were determined. The results were expressed as a percentage reduction in parasite burden compared to control wells, and the IC50 was calculated by linear regression analysis. The collection of mouse peritoneal macrophages was done at the Swiss Tropical and Public Health Institute (Basel) according to the rules and regulations for the protection of animal rights ("Tierschutzverordnung") of the Swiss "Bundesamt für Veterinärwesen".

P. falciparum strain K1 = assay: In vitro activity against P. falciparum, serial drug dilution assay; details: Plasmodium falciparum, K1, read-out: IC50 P. falc. K1
Description: as §1

Cytotoxicity on L6 cells = details: rat, IC50 Cytotox. L6, L6 cells, means of two independent assays
Description: as §1

[5] = Cytotoxicity on macrophages infected with L. donovani; format: cell-based; details: mouse, mouse peritoneal macrophages infected with L. donovani, read-out: IC50 Cytotox. mac.inf.

In the case of O=C(CCCN1CCC2(CC1)C(=O)NCN2c1ccccc1)c1ccc(F)cc1 [Spiperone], the IC50 [1] is reported as 22.4 µM, the IC50 [2] is reported as 64.6 µM and the IC50 [3] is reported as over 228 µM. The IC50 [4] was over 75.9 µM, the IC50 (P. falciparum strain K1) was 1.76 µM and the IC50 (Cytotoxicity on L6 cells) was 54.4 µM. It also gave an IC50 at 96 h [5] of over 75.9 µM.
